Experimental data as given in publication PMC5270677.
These are yes or no findings as the source states them, for the method shown. Binding seen in cells or lysates may run through a third protein.

Amino acid sequences for entries named in this document (tags omitted). Residues count along the entry.
UniProt P07237, residues 18-508: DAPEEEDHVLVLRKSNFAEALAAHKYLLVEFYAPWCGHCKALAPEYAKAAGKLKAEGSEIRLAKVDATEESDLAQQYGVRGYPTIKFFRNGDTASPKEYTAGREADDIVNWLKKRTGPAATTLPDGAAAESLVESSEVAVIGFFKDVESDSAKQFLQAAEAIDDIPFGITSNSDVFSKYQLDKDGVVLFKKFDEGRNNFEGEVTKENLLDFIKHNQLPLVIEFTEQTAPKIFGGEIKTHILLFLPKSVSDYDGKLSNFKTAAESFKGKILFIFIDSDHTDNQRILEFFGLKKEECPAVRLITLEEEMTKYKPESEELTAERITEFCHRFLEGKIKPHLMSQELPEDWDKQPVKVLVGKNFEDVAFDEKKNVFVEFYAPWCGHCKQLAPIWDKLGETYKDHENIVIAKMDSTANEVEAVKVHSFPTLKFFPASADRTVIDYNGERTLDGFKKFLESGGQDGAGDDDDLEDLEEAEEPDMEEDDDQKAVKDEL

Target: protein disulfide isomerase (PDI), recombinant (UniProt P07237)
Experiment: pull-down; only the target purified

PrP^Sc from brain homogenate of sporadic CJD (sCJD) patients (from UniProt P04156 23-230)
binding: no binding
